The supplement of paper PMC7666118
This is one part of the list.

Protein sequences, listed by entry. Tags and fused reporters are not part of them. Lines headed by an entry give the natural chain unless they say otherwise; changes in a name come on top.
UniProt P11474: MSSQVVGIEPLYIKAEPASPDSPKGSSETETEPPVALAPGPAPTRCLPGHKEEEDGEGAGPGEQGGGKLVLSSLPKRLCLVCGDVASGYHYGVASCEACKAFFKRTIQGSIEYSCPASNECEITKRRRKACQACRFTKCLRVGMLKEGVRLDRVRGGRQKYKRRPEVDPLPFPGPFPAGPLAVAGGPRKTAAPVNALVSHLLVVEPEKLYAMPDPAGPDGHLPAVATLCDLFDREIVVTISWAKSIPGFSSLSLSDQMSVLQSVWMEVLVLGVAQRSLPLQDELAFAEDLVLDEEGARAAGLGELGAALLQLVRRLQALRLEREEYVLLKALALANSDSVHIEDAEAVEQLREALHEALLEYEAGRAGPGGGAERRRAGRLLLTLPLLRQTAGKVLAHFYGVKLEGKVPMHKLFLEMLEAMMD
UniProt Q8NFC6: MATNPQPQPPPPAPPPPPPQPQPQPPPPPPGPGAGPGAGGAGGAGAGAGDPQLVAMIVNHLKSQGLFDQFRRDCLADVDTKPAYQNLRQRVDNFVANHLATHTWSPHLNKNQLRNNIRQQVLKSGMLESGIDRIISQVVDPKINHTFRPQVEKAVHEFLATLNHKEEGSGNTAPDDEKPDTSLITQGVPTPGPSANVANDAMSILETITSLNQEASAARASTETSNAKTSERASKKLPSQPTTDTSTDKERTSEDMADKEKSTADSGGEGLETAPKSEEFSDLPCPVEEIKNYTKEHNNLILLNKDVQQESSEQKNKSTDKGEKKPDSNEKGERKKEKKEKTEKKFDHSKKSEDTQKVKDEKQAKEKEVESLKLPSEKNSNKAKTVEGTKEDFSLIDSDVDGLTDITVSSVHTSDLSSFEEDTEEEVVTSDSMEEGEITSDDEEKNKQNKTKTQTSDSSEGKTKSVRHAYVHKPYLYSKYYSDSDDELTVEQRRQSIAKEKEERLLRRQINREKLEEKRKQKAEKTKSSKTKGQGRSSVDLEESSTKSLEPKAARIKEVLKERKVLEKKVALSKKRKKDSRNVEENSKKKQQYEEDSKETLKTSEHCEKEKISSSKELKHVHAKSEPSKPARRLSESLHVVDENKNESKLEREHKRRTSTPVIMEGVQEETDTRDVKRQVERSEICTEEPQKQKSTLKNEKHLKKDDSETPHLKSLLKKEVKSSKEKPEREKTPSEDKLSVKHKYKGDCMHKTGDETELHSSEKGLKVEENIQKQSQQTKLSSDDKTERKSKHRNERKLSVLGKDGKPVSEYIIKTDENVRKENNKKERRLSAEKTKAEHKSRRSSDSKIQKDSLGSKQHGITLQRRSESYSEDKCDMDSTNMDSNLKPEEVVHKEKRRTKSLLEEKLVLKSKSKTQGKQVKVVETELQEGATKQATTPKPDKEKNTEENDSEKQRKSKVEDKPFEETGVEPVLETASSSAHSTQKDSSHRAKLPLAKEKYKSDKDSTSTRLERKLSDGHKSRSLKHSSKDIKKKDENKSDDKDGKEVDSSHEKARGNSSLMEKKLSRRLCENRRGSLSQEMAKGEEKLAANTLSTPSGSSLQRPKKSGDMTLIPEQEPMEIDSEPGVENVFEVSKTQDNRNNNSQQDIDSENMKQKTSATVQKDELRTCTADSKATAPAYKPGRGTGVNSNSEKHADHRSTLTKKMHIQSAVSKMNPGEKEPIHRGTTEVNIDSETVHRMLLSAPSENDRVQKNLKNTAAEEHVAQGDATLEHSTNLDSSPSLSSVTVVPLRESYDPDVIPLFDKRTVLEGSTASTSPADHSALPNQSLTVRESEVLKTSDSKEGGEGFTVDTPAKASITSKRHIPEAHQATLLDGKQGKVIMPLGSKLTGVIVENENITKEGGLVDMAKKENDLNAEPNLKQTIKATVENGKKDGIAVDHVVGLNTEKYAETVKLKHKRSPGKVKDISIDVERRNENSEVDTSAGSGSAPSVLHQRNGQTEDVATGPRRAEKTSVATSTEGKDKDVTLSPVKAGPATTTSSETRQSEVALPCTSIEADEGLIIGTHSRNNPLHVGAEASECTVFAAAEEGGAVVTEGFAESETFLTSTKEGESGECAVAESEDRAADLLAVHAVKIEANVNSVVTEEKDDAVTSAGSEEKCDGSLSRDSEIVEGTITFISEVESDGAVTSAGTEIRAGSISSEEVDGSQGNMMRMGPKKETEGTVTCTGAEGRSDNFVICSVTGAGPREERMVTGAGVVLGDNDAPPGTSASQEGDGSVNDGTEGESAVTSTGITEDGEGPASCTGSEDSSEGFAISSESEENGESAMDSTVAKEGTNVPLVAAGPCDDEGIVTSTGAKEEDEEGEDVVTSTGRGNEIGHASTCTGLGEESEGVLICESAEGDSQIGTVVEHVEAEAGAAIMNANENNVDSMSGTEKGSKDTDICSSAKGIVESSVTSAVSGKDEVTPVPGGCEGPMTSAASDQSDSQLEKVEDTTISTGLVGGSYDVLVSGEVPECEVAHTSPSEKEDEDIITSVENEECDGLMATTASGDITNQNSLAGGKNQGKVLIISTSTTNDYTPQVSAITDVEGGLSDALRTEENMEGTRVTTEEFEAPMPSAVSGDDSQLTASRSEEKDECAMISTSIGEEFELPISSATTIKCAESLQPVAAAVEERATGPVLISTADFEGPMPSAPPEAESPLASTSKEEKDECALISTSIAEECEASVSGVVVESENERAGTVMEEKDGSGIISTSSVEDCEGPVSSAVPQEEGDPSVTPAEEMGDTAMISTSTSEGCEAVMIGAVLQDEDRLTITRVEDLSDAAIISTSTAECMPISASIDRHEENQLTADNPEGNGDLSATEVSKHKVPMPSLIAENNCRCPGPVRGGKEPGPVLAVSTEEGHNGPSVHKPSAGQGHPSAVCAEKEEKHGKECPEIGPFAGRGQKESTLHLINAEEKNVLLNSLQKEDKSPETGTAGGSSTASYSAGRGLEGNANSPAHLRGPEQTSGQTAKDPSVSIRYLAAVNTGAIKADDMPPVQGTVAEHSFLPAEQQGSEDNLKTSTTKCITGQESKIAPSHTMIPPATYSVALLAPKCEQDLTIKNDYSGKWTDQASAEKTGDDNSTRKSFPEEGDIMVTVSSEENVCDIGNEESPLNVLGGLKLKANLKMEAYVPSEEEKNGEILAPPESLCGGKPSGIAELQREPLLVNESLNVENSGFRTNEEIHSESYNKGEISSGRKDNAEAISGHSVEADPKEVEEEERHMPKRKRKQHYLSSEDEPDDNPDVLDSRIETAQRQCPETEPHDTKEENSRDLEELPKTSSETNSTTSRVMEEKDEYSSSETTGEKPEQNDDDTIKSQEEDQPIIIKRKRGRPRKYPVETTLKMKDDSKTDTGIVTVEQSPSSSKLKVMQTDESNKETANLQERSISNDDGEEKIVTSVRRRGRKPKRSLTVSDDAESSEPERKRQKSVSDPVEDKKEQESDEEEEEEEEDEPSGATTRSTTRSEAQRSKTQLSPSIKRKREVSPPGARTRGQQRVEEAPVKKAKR
UniProt Q5W0V3: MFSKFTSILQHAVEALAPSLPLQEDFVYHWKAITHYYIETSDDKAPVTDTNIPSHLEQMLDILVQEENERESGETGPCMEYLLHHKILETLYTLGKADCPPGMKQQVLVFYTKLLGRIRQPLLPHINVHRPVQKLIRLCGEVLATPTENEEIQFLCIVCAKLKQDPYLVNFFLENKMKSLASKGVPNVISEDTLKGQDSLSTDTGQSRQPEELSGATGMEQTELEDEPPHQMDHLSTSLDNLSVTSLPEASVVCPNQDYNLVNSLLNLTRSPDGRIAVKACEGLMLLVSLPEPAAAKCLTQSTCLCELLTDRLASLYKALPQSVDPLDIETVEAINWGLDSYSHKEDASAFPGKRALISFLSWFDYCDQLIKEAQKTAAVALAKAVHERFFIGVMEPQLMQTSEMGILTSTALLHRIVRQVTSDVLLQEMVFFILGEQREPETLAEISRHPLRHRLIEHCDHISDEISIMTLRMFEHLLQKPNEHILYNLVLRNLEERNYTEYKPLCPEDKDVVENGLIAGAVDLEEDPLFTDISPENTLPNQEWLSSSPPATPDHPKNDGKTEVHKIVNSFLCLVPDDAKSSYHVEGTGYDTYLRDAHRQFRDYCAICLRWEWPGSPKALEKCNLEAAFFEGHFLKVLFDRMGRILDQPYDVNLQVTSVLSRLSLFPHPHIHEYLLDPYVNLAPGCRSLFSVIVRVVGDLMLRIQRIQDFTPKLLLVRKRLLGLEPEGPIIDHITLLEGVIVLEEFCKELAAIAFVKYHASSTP
UniProt Q9BVJ7: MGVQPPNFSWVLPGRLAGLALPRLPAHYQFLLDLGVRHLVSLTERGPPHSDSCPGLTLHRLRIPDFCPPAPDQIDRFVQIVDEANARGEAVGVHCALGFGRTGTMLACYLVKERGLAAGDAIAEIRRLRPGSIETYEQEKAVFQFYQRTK
UniProt Q13542: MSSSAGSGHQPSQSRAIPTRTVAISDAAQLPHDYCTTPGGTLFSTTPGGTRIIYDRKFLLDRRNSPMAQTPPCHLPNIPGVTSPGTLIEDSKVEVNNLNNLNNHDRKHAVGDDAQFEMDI
UniProt O60739, whole entry: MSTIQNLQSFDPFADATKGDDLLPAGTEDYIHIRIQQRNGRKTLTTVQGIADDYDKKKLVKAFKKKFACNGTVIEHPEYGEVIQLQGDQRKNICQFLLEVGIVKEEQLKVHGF
UniProt Q9UBC2: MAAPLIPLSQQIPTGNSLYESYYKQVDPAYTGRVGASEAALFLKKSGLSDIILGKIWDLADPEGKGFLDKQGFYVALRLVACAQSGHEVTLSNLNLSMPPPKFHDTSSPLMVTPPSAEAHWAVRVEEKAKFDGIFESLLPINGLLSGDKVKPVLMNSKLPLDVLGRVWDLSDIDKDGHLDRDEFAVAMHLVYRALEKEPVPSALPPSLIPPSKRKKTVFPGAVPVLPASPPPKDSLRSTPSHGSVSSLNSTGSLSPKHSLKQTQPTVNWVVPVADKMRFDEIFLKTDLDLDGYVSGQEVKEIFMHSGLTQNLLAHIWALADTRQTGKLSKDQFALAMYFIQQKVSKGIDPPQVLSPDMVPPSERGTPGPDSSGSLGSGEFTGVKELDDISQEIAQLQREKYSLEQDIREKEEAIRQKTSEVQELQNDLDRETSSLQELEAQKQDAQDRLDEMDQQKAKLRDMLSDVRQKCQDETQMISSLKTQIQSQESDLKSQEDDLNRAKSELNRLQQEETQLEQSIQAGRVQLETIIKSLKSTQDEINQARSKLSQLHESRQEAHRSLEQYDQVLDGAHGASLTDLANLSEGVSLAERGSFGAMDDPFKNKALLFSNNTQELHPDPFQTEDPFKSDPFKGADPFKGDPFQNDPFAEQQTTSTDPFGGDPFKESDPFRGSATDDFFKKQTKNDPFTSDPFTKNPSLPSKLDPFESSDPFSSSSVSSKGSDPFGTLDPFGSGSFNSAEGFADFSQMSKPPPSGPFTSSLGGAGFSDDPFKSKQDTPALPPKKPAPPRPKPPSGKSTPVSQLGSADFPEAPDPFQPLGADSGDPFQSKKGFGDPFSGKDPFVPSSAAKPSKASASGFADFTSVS
UniProt Q9Y421: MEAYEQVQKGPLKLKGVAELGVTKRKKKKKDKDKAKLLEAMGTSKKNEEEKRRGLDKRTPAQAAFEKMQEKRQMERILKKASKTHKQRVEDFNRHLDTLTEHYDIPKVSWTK
UniProt Q5BKY9: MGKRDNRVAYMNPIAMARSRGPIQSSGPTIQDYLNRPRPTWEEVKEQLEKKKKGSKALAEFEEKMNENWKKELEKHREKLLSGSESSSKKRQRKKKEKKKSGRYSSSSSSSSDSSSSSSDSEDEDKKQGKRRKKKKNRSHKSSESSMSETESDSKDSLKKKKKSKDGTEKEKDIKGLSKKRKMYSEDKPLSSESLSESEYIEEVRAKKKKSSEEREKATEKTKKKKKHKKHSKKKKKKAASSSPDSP
UniProt O75616: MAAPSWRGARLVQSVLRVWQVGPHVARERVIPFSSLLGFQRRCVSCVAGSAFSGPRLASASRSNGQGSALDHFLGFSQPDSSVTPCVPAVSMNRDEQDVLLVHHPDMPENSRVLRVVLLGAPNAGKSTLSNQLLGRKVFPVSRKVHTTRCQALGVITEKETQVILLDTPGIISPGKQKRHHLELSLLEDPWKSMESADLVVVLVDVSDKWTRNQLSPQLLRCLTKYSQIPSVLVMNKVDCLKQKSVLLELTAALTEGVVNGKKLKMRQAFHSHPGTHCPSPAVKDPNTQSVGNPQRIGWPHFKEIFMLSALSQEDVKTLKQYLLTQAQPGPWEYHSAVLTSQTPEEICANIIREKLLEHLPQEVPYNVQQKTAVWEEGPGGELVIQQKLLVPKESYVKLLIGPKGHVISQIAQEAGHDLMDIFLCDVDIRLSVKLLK
UniProt P05198, whole entry: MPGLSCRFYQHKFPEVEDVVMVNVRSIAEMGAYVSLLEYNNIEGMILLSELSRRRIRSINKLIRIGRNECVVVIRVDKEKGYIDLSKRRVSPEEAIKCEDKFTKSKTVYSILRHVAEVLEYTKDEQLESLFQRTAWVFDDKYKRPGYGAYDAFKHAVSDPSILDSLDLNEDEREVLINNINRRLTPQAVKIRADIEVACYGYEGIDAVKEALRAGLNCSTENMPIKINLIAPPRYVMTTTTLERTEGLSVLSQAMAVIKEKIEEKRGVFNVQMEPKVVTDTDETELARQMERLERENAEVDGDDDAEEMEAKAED

Compound: COc1ccc(Cn2ccc3cc(C)c(C(=O)NO)cc32)cc1
Assay: dose-dependent thermal stabilisation call (2D-TPP, DLPTP, 10% FDR) (binary (1 = stabilised)); higher = stabilised by the compound
Conditions: system: HL-60 intact cells; concentration range 0.04-10 µM
Description: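 2D thermal proteome profiling in intact HL-60 cells treated with BRD-3811 (0, 0.04, 0.29, 2, 10 uM) for 90 min at 37 C, then heated 3 min at one of 12 temperatures (42-63.9 C). Soluble protein was quantified by TMT10 MS. The value is the DLPTP call of the paper: dose-dependent thermal stabilisation over all temperatures at 10% FDR (F-test of a dose-response against a flat model); one experiment, one call per tested protein.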

| Target | dose-dependent thermal stabilisation call |
| --- | --- |
| EIF2B3 (UniProt Q9NR50) | inactive: 0 |
| ETFB (UniProt P38117) | inactive: 0 |
| ESRRA (UniProt P11474) | inactive: 0 |
| EIF4A1 (UniProt P60842) | inactive: 0 |
| ENPP4 (UniProt Q9Y6X5) | inactive: 0 |
| FAM117B (UniProt Q6P1L5) | inactive: 0 |
| FAM44A (UniProt Q8NFC6) | inactive: 0 |
| EDD1 (UniProt O95071) | inactive: 0 |
| F13A1 (UniProt P00488) | inactive: 0 |
| FAM160B1 (UniProt Q5W0V3) | inactive: 0 |
| DUSP23 (UniProt Q9BVJ7) | inactive: 0 |
| ERCC6L (UniProt Q2NKX8) | inactive: 0 |
| FAM177A1 (UniProt Q8N128) | inactive: 0 |
| EZR (UniProt P15311) | inactive: 0 |
| EDEM3 (UniProt Q9BZQ6) | inactive: 0 |
| ERO1LB (UniProt Q86YB8) | inactive: 0 |
| EIF4EBP2 (UniProt Q13542) | inactive: 0 |
| EXOSC2 (UniProt Q13868) | inactive: 0 |
| EEF1B2 (UniProt P24534) | inactive: 0 |
| ELMOD2 (UniProt Q8IZ81) | inactive: 0 |

| Target | dose-dependent thermal stabilisation call |
| --- | --- |
| FAM103A1 (UniProt Q9BTL3) | inactive: 0 |
| EXTL2 (UniProt Q9UBQ6) | inactive: 0 |
| EPS15 (UniProt P42566) | inactive: 0 |
| EIF1B (UniProt O60739) | inactive: 0 |
| DPYSL2 (UniProt Q16555) | inactive: 0 |
| EXOC4 (UniProt Q96A65) | inactive: 0 |
| EXOC1 (UniProt Q9NV70) | inactive: 0 |
| EPS15L1 (UniProt Q9UBC2) | inactive: 0 |
| EIF4A3 (UniProt P38919) | inactive: 0 |
| EBNA1BP2 (UniProt Q99848) | inactive: 0 |
| ENAH (UniProt Q8N8S7) | inactive: 0 |
| FAM32A (UniProt Q9Y421) | inactive: 0 |
| FAM133B (UniProt Q5BKY9) | inactive: 0 |
| ENO2 (UniProt P09104) | inactive: 0 |
| ERAL1 (UniProt O75616) | inactive: 0 |
| DTX3L (UniProt Q8TDB6) | inactive: 0 |
| EYA3 (UniProt Q99504) | inactive: 0 |
| DRAP1 (UniProt Q14919) | inactive: 0 |
| FAM114A2 (UniProt Q9NRY5) | inactive: 0 |
| EIF2S1 (UniProt P05198) | inactive: 0 |

Taken from above:
dose-dependent thermal stabilisation call, EIF4A3 (UniProt P38919) reads inactive: 0
dose-dependent thermal stabilisation call, EXOC4 (UniProt Q96A65) reads inactive: 0
